Data from patent US20220073617A1.
No constants are given. Whether binding was seen depends on the method and setting. Some entries that bind do so weakly or less than the wild type. Sequences can lack the tags named with a protein.

By UniProt entry, the sequences of proteins in these tests, tags left out. Where a name states a change or a piece, a line headed by the entry shows the natural chain unless it says otherwise.
UniProt Q14242: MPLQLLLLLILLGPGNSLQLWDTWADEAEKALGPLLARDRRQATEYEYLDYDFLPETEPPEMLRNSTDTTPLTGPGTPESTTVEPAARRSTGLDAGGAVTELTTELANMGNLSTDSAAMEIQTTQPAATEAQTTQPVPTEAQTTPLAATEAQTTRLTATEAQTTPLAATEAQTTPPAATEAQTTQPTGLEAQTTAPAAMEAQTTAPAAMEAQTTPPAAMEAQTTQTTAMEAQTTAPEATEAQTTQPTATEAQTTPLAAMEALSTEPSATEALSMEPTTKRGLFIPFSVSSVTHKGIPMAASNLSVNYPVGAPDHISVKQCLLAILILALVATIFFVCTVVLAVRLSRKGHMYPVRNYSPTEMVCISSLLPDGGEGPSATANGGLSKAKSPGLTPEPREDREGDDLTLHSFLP
UniProt Q9H7M9: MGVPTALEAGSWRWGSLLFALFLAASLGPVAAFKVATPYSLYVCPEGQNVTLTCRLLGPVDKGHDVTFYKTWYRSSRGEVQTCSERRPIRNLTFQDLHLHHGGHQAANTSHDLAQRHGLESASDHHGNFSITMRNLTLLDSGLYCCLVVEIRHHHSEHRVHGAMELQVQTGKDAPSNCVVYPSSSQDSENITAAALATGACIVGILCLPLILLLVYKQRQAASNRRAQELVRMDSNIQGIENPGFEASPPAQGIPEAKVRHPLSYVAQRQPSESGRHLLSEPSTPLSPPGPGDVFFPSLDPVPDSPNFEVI

Biological target: T1, human PSGL1 19-mer-huFc (amino-terminal 19 amino acids of mature PSGL1 fused to human Fc) (human) (UniProt Q14242)
T1 sequence (sulfotyrosine and siayl lewis X carbohydrate post-translational modifications, looked up): QATEYEYLDYDFLPETEPP
Assay: BLI and CHO-PSGL-1 cell binding, pH 6.0

Substance: human VISTA-Fc H2A mutant (histidines 153-155 replaced by alanine) (from UniProt Q9H7M9 33-194) (Fc fusion)
- binding: binds
